Experimental data published in PubChem BioAssay AID540276 (National Center for Advancing Translational Sciences (NCATS), 2011).
Several values for one entry are separate records, joined by “and”; a condition that tells them apart may be missing. Equal values may be shown once. Among all 300,000 compounds or so, about 5,400 (1.8%) were called active. This list was built around the results that the source calls inconclusive (neither active nor inactive); the mix of calls is not that of the screen. Calls come from the whole dose curve; tested in HEK293 cells. Where the call is inconclusive, the potency comes from a doubtful curve fit.

assay: qHTS for inhibitors of binding or entry into cells for Marburg Virus; conditions: Marburg virus pseudotyped entry inhibition, cell reporter; series mostly up to 37.8 µM
Potency is the fitted concentration of half-maximal effect.

Compound	Potency
O=C(CSc1nnc(CNC(=O)c2ccco2)o1)c1ccccc1	inactive
O=C(CNc1cccc(S(=O)(=O)N2CCCC2)c1)Nc1cccc(F)c1	inconclusive: 7.08 µM [inhibitor, partial curve]
COc1cc([C@H]2[C@@H]3CCCC[C@]3(O)CCN2CC(=O)Nc2ccc(C)cc2)ccc1O	inconclusive: 23.1 µM [activator, partial curve, poor fit]
COCCN(CCOC)S(=O)(=O)c1ccc(C(=O)Nc2sc3c(c2C(N)=O)CCCCC3)cc1	inconclusive: 14.6 µM [activator, partial curve]
COc1ccc(/C=C2/C(=O)NC(=O)N(c3ccc(C)c(C)c3)C2=O)cc1CN1C(=O)c2ccccc2C1=O	inconclusive: 1.26 µM [inhibitor, single point]
CCCn1c(=O)c(C(=O)NCc2ccccc2Cl)c(O)c2ccccc21	inactive
Cc1cc(C)nc(SCC(=O)Nc2ncc(Cc3cccc(Cl)c3)s2)n1	inactive
COCCNC(=O)NC(=O)CN1CCN(C(c2ccccc2)c2ccccc2)CC1	inconclusive: 12.6 µM [activator, single point]
Cn1c(=O)n(Cc2ccccc2)c(=O)c2c1nc1n2CCCN1CCc1ccccc1	inconclusive: 23.1 µM [inhibitor, single point]
Cn1c(-c2ccc(-c3ccccc3)cc2)c[nH]c1=S	inconclusive: 31.6 µM [inhibitor, single point]
CCCCCC(=O)c1c(C)[nH]c(C(=O)OCC)c1C	inactive
N#CCc1ccnc2ccccc12	inactive
O=S(=O)(Nc1nc2cc3c(cc2nc1Cl)OCCO3)c1ccccc1	inactive
CCN(CC)CCNC(=O)c1ccc(NC(=O)Cc2cccc3ccccc23)cc1	active: 11.2 µM
S=C(Nc1ccc(Oc2ccc(NC(=S)NC3CCCCC3)cc2)cc1)NC1CCCCC1	inconclusive: 1.58 µM [inhibitor, full curve]
O=C(N/N=C/c1cccc(OC2CSC2)c1)c1ccccc1O	inconclusive: 11.2 µM [inhibitor, single point]
CC(CCc1ccccc1)NC(=O)COC(=O)c1cc(NS(=O)(=O)c2ccc(Cl)c([N+](=O)[O-])c2)ccc1O (stereo not drawn)	active: 2.51 µM
CN1CCN(C(=O)c2ccc(Oc3ccc([N+](=O)[O-])cc3)cc2)CC1	inactive
CN1CCN(c2ccc(N)cc2Cl)CC1	inconclusive: 11.2 µM [inhibitor, partial curve, poor fit]
CCc1cccc(C)c1Nc1c(-c2cccc(O)c2)nc2cnccn12	inactive
COC(=O)c1sc(SC)c(S(=O)(=O)C(C)C)c1N/N=C(\C#N)C(=O)c1ccccc1	inactive
Cc1ccc(-c2cc(=O)c3cc(F)ccc3[nH]2)cc1	inactive
N#C/C(=C\c1ccc2c(c1)OCCO2)C(=O)NC1CCCCC1	inactive
CC(C)COc1cccc(-c2cc(C(=O)Nc3ccon3)c3ccccc3n2)c1	inconclusive: 35.5 µM [inhibitor, single point]
CC(CC(C)(C)N1CC1)=NO	inconclusive: 5.01 µM [activator, partial curve, poor fit]

Compound	Potency
Cc1ccc(NC(=O)c2cccc3cccnc23)cc1	inactive
CCNC(=S)Nc1ccc(Cl)c(C(F)(F)F)c1	inconclusive: 35.5 µM [inhibitor, single point]
COc1cc(OC)cc(C(=O)OCc2ccc([N+](=O)[O-])cc2)c1	inconclusive: 10 µM [inhibitor, partial curve, poor fit]
Cc1cccc(C)c1N1C(=O)CC(N(O)c2ccccc2)C1=O (stereo not drawn)	inactive
COc1ccc(/C=C/c2nc(C#N)c(NC3CCCCC3)o2)cc1OC	inactive
CC(Nc1nc(-c2ccc3c(c2)NC(=O)CO3)cs1)c1ccccc1 (stereo not drawn)	inconclusive: 35.5 µM [inhibitor, single point]
O=C(Nc1ccccc1Cl)NN1CCCCCC1	inconclusive: 2.51 µM [activator, partial curve, poor fit]
Cc1nc2cc3sc(C)nc3cc2s1	inconclusive: 5.62 µM [activator, single point]
Cn1c(C(=O)N2CCN(Cc3ccc4c(c3)OCO4)CC2)cc2c(=O)n(C)c3ccccc3c21	inactive
O=S(=O)(c1ccc(Oc2ccc(Cl)cc2)c(S(=O)(=O)N2CCCCC2)c1)N1CCCCC1	inconclusive: 1.16 µM [inhibitor, partial curve, poor fit]
COc1cc(C(C[N+](=O)[O-])c2c(N)n(C)c(=O)n(C)c2=O)ccc1O (stereo not drawn)	inconclusive: 7.94 µM [inhibitor, partial curve, poor fit]
Cc1ccnc(NC(=O)c2cccs2)c1	inconclusive: 0.891 µM [activator, full curve, poor fit]
COc1ccc(C(CNC(=O)c2cccc(S(=O)(=O)N3CCc4ccccc43)c2)N(C)C)cc1 (stereo not drawn)	inconclusive: 35.5 µM [inhibitor, single point]
CCN(CC)c1ccc(C(=O)NNC(=O)c2cccn2C)cc1	inconclusive: 2 µM [activator, partial curve, poor fit]
O=C(CCN1CCCCCC1)Nc1cccc(Cl)c1	inactive
CCCSC1=C(C#N)C(c2ccccc2C)CC(=O)N1 (stereo not drawn)	inconclusive: 35.5 µM [inhibitor, single point]
O=C(Nc1ccc(Cl)c(S(=O)(=O)N2CCOCC2)c1)c1ccc(OCC2CCCO2)cc1 (stereo not drawn)	active: 2.24 µM
CCCCN(CC)CCCNC(=O)c1csc2c1CCCCC2	inconclusive: 14.6 µM [inhibitor, partial curve, poor fit]
CC(=O)c1cccc(NC(=O)c2ccc(C)c(S(=O)(=O)N3CCOCC3)c2)c1	inactive
CCOc1ccc(N(Cc2cc3cc(C)ccc3[nH]c2=O)C(=O)c2cccc(Cl)c2)cc1	inactive
Cc1ccccc1OCC(=O)Nc1ccccc1CO	inconclusive: 7.94 µM [activator, partial curve, poor fit]
COc1ccccc1CNC(=O)CN1CCN(c2ccc(C(C)=O)cc2)CC1	inconclusive: 15.8 µM [activator, single point]
O=C(CN1CCN(S(=O)(=O)c2ccc(Br)cc2)CC1)Nc1ccc(F)cc1F	inactive and inconclusive: 224 nM [activator, full curve, poor fit]
Cc1ccccc1-c1nc(S(=O)(=O)c2ccc(Br)cc2)c(NCc2cccnc2)o1	inconclusive: 11.6 µM [inhibitor, partial curve, poor fit]
CCCOc1ccc(/C=C/C(=O)OCC(=O)N(C)c2c(N)n(Cc3ccccc3)c(=O)[nH]c2=O)cc1OCC	inconclusive: 15.8 µM [activator, partial curve, poor fit]

By substructure, those above with bromine (two)
Compound	Potency
O=C(CN1CCN(S(=O)(=O)c2ccc(Br)cc2)CC1)Nc1ccc(F)cc1F	inactive and inconclusive: 224 nM [activator, full curve, poor fit]
Cc1ccccc1-c1nc(S(=O)(=O)c2ccc(Br)cc2)c(NCc2cccnc2)o1	inconclusive: 11.6 µM [inhibitor, partial curve, poor fit]

(next part)

Compound	Potency
O=c1/c(=C\c2ccc3c(c2)OCO3)sc2n1CCCN=2	inconclusive: 4.61 µM [activator, partial curve, poor fit]
O=C(CN(c1cccc(C(F)(F)F)c1)S(=O)(=O)c1ccccc1)N1CCOCC1	inactive
O=C(NC1CCCc2c1cnn2-c1ccc(F)cc1F)c1ccccn1 (stereo not drawn)	inconclusive: 3.98 µM [inhibitor, partial curve, poor fit]
C/C(=N\NC(=O)c1ccco1)c1cccc2ccccc12	inactive
CSc1nc2cc3c(cc2n1C(=O)c1ccc(C)cc1)OCCO3	inactive
Cn1cc(Br)c(C(=O)N2CCN(c3cccc(Cl)c3)CC2)n1	inconclusive: 1.83 µM [inhibitor, partial curve, poor fit]
CCCN(Cc1cccs1)C(=O)Nc1ccccc1C	inconclusive: 25.1 µM [inhibitor, single point]
Cc1ccc(-n2c(C)nc3cc(Cl)ccc3c2=O)nc1	inactive
CCNC(=S)N(Cc1ccco1)Cc1cc2cc3c(cc2[nH]c1=O)OCCO3	inconclusive: 11.2 µM [inhibitor, single point]
Cc1cc(C)nc(SCc2csc(-c3ccccc3)n2)n1	inconclusive: 35.5 µM [inhibitor, single point]
O=C(Nc1c2c(nn1-c1ccc(F)cc1)CS(=O)C2)c1ccco1 (stereo not drawn)	inconclusive: 5.62 µM [inhibitor, single point]
CCOC(=O)c1ccc(-n2c(CCC(=O)O)ccc2-c2cccs2)cc1	inactive
Cc1ccc(C(=O)Nc2nc3ccccc3[nH]2)cc1	active: 1.41 µM
CC(=O)N1C(=O)N(C(C)=O)C2C1N(C)C(=O)N2C(C)=O (stereo not drawn)	inactive
CCC(=O)N1CCN(c2nc(C)nc3sc(C)c(C)c23)CC1	inactive
Cc1ccc(S(=O)(=O)CCc2nc3ccccc3s2)cc1	inactive
Cc1cc(C)cc(NS(=O)(=O)c2cc(Br)cnc2N)c1	inconclusive: 10 µM [inhibitor, partial curve]
O=[N+]([O-])c1ccc(S(=O)(=O)Nc2cccc(-c3ccc(N4CCOCC4)nn3)c2)cc1	inactive
O=C(Nc1ccc2ncccc2c1)c1ccccc1	inactive
Cc1cccc(C)c1OCC(=O)N(Cc1ccc(Cl)cc1)CC1CCCO1 (stereo not drawn)	inconclusive: 4.47 µM [inhibitor, full curve]
COc1ccc(-c2nn(C)c3sc(C(=O)N4CCOCC4)cc23)cc1OC	inconclusive: 35.5 µM [inhibitor, single point]
COc1ccc(OCC#CCN2CC(C)OC(C)C2)cc1 (stereo not drawn)	inconclusive: 35.5 µM [inhibitor, single point]
COc1cc(S(=O)(=O)N2CCCCC2)ccc1NC(=O)Cc1ccccc1	inconclusive: 4.61 µM [inhibitor, full curve, poor fit]
